Assay results published in US10500164B2, “Nanoparticle-based combinatorial therapy” (The American University in Cairo, priority 2014, dated 2019).

Test system: MCF-7 cells
Experiment: MTT cytotoxicity assay on breast cancer cell line (MCF-7), 48 hrs incubation
Assay type: cell-based
Conditions: free DOX or DOX part of DOX-NCs
Method: The in-vitro test was conducted using the MTT assay on breast cancer cell line (MCF-7) and human fibroblast cell line (1BR hTERT), which was performed as follows:
(1) Testing the cytotoxic effect of different concentrations (2, 4, 8, 10, and 12 μg/ml) of free DOX alone,
(2) Testing the cytotoxic effect of AgNPs and core-shell Ag/polymeric (PVA, PEG, and PVP) NPs using different concentrations (10, 20, 50, and 100 μg/ml), and
(3) Testing the cytotoxic effect of NPs-based combinatorial therapy of an individual type of DOX-Ag/polymeric NCs including DOX-loaded Ag/PVA NCs, DOX-loaded Ag/PEG NCs, and DOX-loaded Ag/PVP NCs using different concentrations (0.1, 0.2, and 1 μg/ml DOX).
To assess the cytotoxic effect of AgNPs and core-shell Ag/polymeric NPs, MCF-7 and 1BR hTERT cells were exposed separately to different concentrations of NPs for 48 hrs. AgNPs and core-shell Ag/polymeric (PVA, PEG and PVP) NPs decreased the cell viability of MCF-7 cells and 1BR hTERT cells (FIGS. 8A-D) in a dose-dependent manner. […] The IC50 of NPs in 1BR hTERT cells was 100 μg/mL for Ag NPs, Ag/PVA NPs, and Ag/PEG NPs, and 50 μg/mL for Ag/PVP NPs.
To investigate the cytotoxic effect of NPs-based combinatorial therapy, first, different concentrations of free DOX (2, 4, 8, 10, and 12 μg/mL) were tested on MCF-7 and 1BR hTERT cells, and cell viability was determined after 48 hrs. […]

## COc1cccc2c1C(=O)c1c(O)c3c(c(O)c1C2=O)C[C@@](O)(C(=O)CO)C[C@@H]3O[C@H]1C[C@H](N)[C@H](O)[C@H](C)O1 [free DOX, Doxorubicin]
  IC50 (DOX concentration): 3.7 µg/mL
